# Library screen at single concentrations

The chains behind the UniProt entries cited, without tags or fusion partners. Residues count along the entry.
UniProt Q8IDJ8, 1-583: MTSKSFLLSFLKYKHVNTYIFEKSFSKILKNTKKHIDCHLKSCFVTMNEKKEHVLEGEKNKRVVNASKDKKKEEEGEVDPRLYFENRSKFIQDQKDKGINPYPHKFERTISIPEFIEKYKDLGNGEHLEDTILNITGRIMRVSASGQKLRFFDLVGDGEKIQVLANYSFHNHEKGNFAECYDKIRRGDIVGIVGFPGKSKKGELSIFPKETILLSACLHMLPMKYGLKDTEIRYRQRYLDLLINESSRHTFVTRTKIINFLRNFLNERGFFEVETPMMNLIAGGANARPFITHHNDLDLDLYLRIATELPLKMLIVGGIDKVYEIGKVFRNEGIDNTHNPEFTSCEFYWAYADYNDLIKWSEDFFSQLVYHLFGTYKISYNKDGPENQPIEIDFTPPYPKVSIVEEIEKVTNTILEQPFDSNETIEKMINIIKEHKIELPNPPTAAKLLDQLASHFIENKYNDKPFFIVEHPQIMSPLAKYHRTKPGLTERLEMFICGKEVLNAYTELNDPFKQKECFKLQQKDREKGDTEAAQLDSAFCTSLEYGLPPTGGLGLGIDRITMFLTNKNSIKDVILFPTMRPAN

Data taken from ChEMBL document CHEMBL3988442, “University of Dundee, Small-Polar-MMV Screening Library” (2021).

Results are given as percent effect.
How 0% and 100% were set is not recorded. Most values in the screen are low, and negative values occur.
Compounds were drawn at random from those tested, without regard to their results.
Two or more numbers in one place are separate tests of the same structure; such repeats can differ widely.
A dash means the value is not listed here; it may have been measured.

Toxoplasma: 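Assay of Toxoplasma gondii numbers, read through their beta-galactosidase reporter with a colour substrate. Concentration: 10 µM. Higher reads as fewer parasites (inferred from which compounds were picked for retests). Size under these conditions: about 67,000 compounds, about 260 of them at 50% or above in at least one test.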
T. brucei: 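Whole-parasite assay of Trypanosoma brucei over 72 hours; the read-out is not stated. Compounds at 30 µM. Direction is inferred from retests: higher values go with stronger inhibition. Values scatter widely below zero; nearly all retest evidence comes from the higher of the two concentrations used. Of about 64,000 compounds tested this way, about 940 (1.5%) reached 50% or more in at least one test.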
Leishmania in macrophages: 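Cell assay of Leishmania donovani living inside macrophages; the read-out is not stated. Tested at 30 µM. Direction is inferred from retests: higher values go with stronger inhibition. Of about 69,000 compounds tested this way, about 1,000 (1.5%) reached 50% or more in at least one test.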
PfKRS1: 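Lysine-tRNA ligase, Plasmodium falciparum 3D7 (UniProt Q8IDJ8). Enzyme assay of the cytosolic lysyl-tRNA synthetase in 384-well plates, read by luminescence. Compounds at 30 µM. Direction is inferred from only a few compounds that gave an IC50; most scored high, so higher reads as stronger inhibition. Size under these conditions: about 69,000 compounds, about 49 of them at 50% or above in at least one test.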

| SMILES | Toxoplasma | T. brucei | Leishmania in macrophages | PfKRS1 |
|---|---|---|---|---|
| `CCc1nc(CC(=O)N2CCn3c(nnc3C(C)C)C2)cs1` | -3.387 | -5.804 | -1.343 | 6.561 |
| `CC(=O)NC1CCc2ccc(S(=O)(=O)NCc3ncccc3C)cc21` (stereo unspecified) | 32.96 | -12.6 | 19.91 | -2.39 |
| `O=C(N1CCCO1)[C@@]12CCO[C@@H]1CCN(Cc1ccc(F)cc1)C2` | - | - | - | -2.831 |
| `COC(=O)N1C[C@H]2CC[C@@H]1CN(Cc1ccncc1)C2` | - | - | - | 3.058 |
| `CNc1ncc(CN(C)C(=O)c2c[nH]nc2-c2cccc(F)c2)cn1` | 6.343 | -8.205 | 32.63 | -0.1997 |
| `N#Cc1cccc(S(=O)(=O)NC(=O)COCC(F)(F)F)c1` | -1.193 | -64.9 | -64.37 | 8.244 |
| `CCn1ncnc1C(C)Nc1cc(C2CCNCC2)nc(C)n1` (stereo unspecified) | 7.446 | -20.17 | -40.39 | -1.209 |
| `CCCN(CC)Cc1ccc(C(=O)NCC2COCCO2)c(=O)[nH]1` (stereo unspecified) | -9.26 | -10.31 | 15.24 | 4.582 |
| `CC(C)CCn1ccc(NC(=O)N2CCCC2CN2CCOCC2)n1` (stereo unspecified) | 1.163 | -1.271 | 25.29 | -0.07747 |
| `CS(=O)(=O)N1CCC(NC(=O)COc2ccc(Cl)c(Cl)c2)CC1` | 0.8899 | 7.137 | 32.34 | 3.392 |
| `CC(C)OCCCN(Cc1ccncc1)Cc1cc(F)ccc1F.Cl` | -10.14 | -3.291 | 13.62 & 12.03 | - |
| `[H][C@]12CC[C@]([H])(CN(Cc3cccnc3)C1)N(C(=O)OC(C)C)C2` | 2.363 | 11.03 | 21.3 | - |
| `CC(Cn1cccn1)NC(=O)Nc1ccc(N(C)C)nc1` (stereo unspecified) | 6.804 | -50.86 | -34.21 | 4.515 |
| `Cc1cc(NCCO)nc2[nH]nc(N)c12` | -23.32 | -36.11 | -0.8463 | 5.964 |
| `CO[C@@H]1CCN(S(=O)(=O)c2cccs2)[C@H]1Cc1ccccc1` | -9.313 | -2.435 | 14.57 | 3.53 |
| `Cc1nn(C)c(C)c1CNCc1ccc(N2CCOCC2)nc1` | - | - | - | 1.911 |
| `COCCO[C@@H]1CCN(C(=O)c2occc2C)[C@H]1Cc1cnn(C)c1` | 3.968 | -16.1 | -59.02 | 0.5465 |
| `COc1cccc(N2CCN(C(=O)C(O)c3ccccc3Cl)CC2=O)c1` (stereo unspecified) | 5.499 | 0.7696 | 11.06 | 0.8871 |
| `Cn1nc(Cn2ccnc2)c2c1CN(c1nccs1)C2` | - | - | - | 3.541 |
| `[H][C@]12CC[C@](O)(CC1)C(CN1CCOCC1)N2S(=O)(=O)c1ccccc1` (stereo partly specified) | 2.316 | -32.88 | -12.62 | - |
| `CCOCC(O)CN1CCN(C(=O)c2ccc(N(C)C)nc2)CC1` (stereo unspecified) | 0.1264 | -29.68 | 16.1 | 2.758 |
| `CC(C)C(=O)N1CCc2onc(C(=O)NCCN(C)C)c2C1.O=C(O)C(F)(F)F` | 0.6299 | -21.1 | 20.45 & -3.46 | - |
| `CCC(Nc1ncccn1)c1cccnc1` (stereo unspecified) | -0.7653 | -16.09 | -5.528 | 0.2264 |
| `CCCC(NC(=O)c1cnccn1)c1nnc2ccccn12` (stereo unspecified) | -4.413 | -1.019 | -5.997 | 1.64 |
| `c1cc(CCNc2ncc(-c3cnccn3)c(C3CC3)n2)ccn1` | - | - | 29.11 | 2.339 |
| `[H][C@]12CN(Cc3cc(F)cc(F)c3)CC[C@@]1(O)CCN(S(=O)(=O)N(C)C)C2` | -3.885 | -75.78 | -55.89 | - |
| `CC(OCC(F)(F)F)C(=O)N1CCCC1` (stereo unspecified) | 2.348 | -34.83 | -72.05 | -18.2 |
| `O=C(C1CC(=O)N(c2n[nH]c3cc(Br)ccc23)C1)N1CCOCC1` (stereo unspecified) | - | 9.677 | -3.266 | 6.249 |
| `CNc1ccc(CC2CCCN(C(=O)c3cncnc3C)C2)nn1` (stereo unspecified) | -1.431 | -25.23 | -2.73 | 6.224 |
| `CCN1CCC(NC(=O)CN2CCCCC2Cn2cc(C)cn2)CC1` (stereo unspecified) | 6.355 | -5.145 | -0.673 | -6.944 |
| `COC(C)(C)CC(C)NCc1cc(-c2ccco2)on1` (stereo unspecified) | 7.65 | 0.7619 | -19.81 | 5.394 |
| `Cc1cc(CN(C)C(=O)NCc2cccc(N3CCCC3=O)c2)no1` | - | 5.641 | 16.35 | 4.326 |
| `CS(=O)(=O)N1CCC(Cc2cnc(Br)cn2)C1` (stereo unspecified) | 7.465 | -46.82 | -59.13 | -1.087 |
| `O=C(N[C@H]1CN(C2CCOCC2)C[C@@H]1C1CC1)c1cc(O)no1` | 16.93 | -15.64 | 7.35 | 2.203 |
| `Cc1nc(N)ncc1C(=O)N1CCCC(CCc2ccc(F)cc2)C1` (stereo unspecified) | -26.36 | 7.779 | 32.02 | 0.5589 |
| `N#Cc1cccc(N2CCCC3(C2)CN(c2ncccn2)CCO3)n1.O=C(O)C(F)(F)F` (stereo unspecified) | -6.634 | -59.69 | -3.791 | - |
| `CCc1cc(=O)[nH]c(-c2ccc(NCCC(C)O)nc2)n1` (stereo unspecified) | 3.239 | 8.316 | 16.79 | 3.105 |
| `Cc1cnc(NC2CCc3c(ccc(=O)n3C)C2)nc1` (stereo unspecified) | -9.425 | 3.135 | 42.33 | 4.912 |
| `COCC(=O)N[C@H]1C[C@@H](Cc2cc(CN3CCOCC3)on2)C1(C)C` | 3.571 | -19.34 | -15.45 | -1.545 |
| `COC(=O)[C@@H]1Cc2ncn(C)c2CN1S(=O)(=O)Cc1ccccc1` | -1.066 | -43.3 | -11.73 | 5.003 |
| `CCc1nc(C2CCCN2c2ncc(C(F)(F)F)cc2Cl)no1` (stereo unspecified) | -14.49 | -31.69 | -1.452 | 0.4345 |
| `CC(C)NC(=O)N(C)C(c1cccc(F)c1)c1ccccn1` (stereo unspecified) | -6.946 | - | 13.45 | 0.1245 |
| `Cc1nc(C)n(CC2CCCN2CC(=O)NCCc2ccsc2)n1` (stereo unspecified) | -4.291 | -16.47 | -10.32 | 1.659 |
| `COc1ccnc(N2CCN(C(=O)Cc3csc(C)n3)CC2)n1` | 1.619 | - | -7.941 | 1.287 |
| `CN1CCN(CCn2cnc3c(F)cccc3c2=O)CC1` | 16.24 | 19.63 | 13.65 | -2.02 |
| `Cc1ccc(S(=O)(=O)NC[C@H]2OC[C@@H](NCc3cccs3)[C@@H]2O)cc1` | -3.173 | -43.53 | 1.247 | -3.707 |
| `COc1cc(Cl)cc(C(=O)N2CCC3(CC2)CNC(=O)C3)c1` | - | -23.64 | -15.33 | 5.732 |
| `Cc1cc(C)n(CCN2CCN(C(=O)c3ccc(Br)o3)CC2)n1` | 8.752 | 12.56 | 2.137 & 11.39 | 1.641 |
| `O=C(O)C(F)(F)F.O=C(O)C(F)(F)F.[H][C@]12CCC(=O)N(Cc3cccc(C)n3)[C@@]1([H])CCN2CC(=O)N(C)C` | 2.608 | -2.273 | 12.84 | - |
| `CCc1ncc2c(n1)CN(Cc1nc(-c3cccnc3)no1)CC2` | -2.926 | 24.23 | 24.25 | 1.191 |
| `Cc1nc(CN2CCC3(CCN(Cc4nccn4C)CC3)C2=O)cs1` | - | - | - | 1.132 |
| `CCc1cnc(CN(C(C)=O)C2CCN(CCc3ccccc3)C2)o1` (stereo unspecified) | -7.018 | -0.1477 | 16.1 | -2.154 |
| `CC(NC(=O)Nc1nnc(-c2ccccn2)s1)C(=O)OC(C)(C)C` (stereo unspecified) | -7.856 | 29.44 | 13.43 | 1.424 |